Experimental data as given in patent publication US20250206701A1.
At least one structure is not confirmed: it was looked up by name or label, or the drawing left a doubt.

Amino acid sequences for entries named in this document (tags omitted).
UniProt P35363, whole entry: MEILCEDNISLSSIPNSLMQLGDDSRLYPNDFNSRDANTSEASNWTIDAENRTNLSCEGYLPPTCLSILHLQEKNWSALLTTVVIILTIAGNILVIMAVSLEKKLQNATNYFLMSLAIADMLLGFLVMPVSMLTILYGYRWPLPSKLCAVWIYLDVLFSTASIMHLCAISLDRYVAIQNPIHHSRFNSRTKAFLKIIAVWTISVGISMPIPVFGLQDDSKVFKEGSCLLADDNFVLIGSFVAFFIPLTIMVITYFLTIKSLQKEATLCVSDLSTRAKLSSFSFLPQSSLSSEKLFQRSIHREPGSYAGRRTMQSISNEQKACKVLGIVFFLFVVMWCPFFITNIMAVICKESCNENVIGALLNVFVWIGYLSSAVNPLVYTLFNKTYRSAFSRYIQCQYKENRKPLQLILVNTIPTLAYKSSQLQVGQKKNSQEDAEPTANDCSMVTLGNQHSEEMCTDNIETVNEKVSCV

Target: T1, 5-HT2A receptor (Mus musculus, UniProt P35363)
T1 construct: tissue Charles River; host or cells: living C57BL/6-Elite mice (brain, in vivo)
Assay: Drug-induced Head Twitch Response (HTR) in mice
Assay type: in vivo, C57BL/6-Elite mice
Settings: 1 mg/kg i.p., 15-to-30-minute window post-drug, relative to vehicle

With CN(C)CCc1c[nH]c2cccc(OP(=O)(O)O)c12 [psilocybin] the “Head Twitch Response (HTR)” value was “Elevated incidences of HTR”.
